Laboratory results reported in patent US10023532B2, “Alkyl phenyl sulfide derivative and pest control agent” (KUMIAI CHEMICAL INDUSTRY CO., LTD., priority 2012, dated 2018).
Some entries share one result that the patent states for a list of compounds.

System: Tetranychus urticae Koch (two spotted spider mite)
Assay: Control effect test for Tetranychus urticae Koch (two spotted spider mite)
Type: in vivo
Conditions: active ingredient concentration 4 ppm; soybean seedlings with 35 female adults immersed; 25° C.; after 13 days; no replication
Experimental: A wettable powder prepared based on Formulation Example 2 was diluted with water into an active ingredient concentration of 4 ppm. In the solution were immersed soybean seedlings which had been inoculated with 35 female adults of two spotted spider mite. The soybean seedlings were dried in the air and placed in a thermostat of 25° C. After 13 days, the number of living female adults was examined and the control value of the active ingredient was determined using the calculation formula of the following Mathematical Expression 1. This test was conducted with no replication. Control value=100−[(number of living female adults after 13 days, in treated seedlings)/(number of living female adults after 13 days, in non-treated seedlings)]×100 [Mathematical Expression 1]
Tests similar to the above were conducted using, as comparative compounds, compound Nos. 22 and 23 described in JP-A-1975-29744, compound Nos. 3, 4, 5, 6 described in JP-A-1976-19121 and compound Nos. 18, 19 and 36 described in JP-A-1988-41451. The structures of these comparative compounds are as follows.

Work on Cc1cc(F)c(OCCCSc2cccc(C(F)(F)F)c2)cc1[S+]([O-])CC(F)(F)F (centres unmarked) [A-0885] yielded a control value of no less than 90.

In the case of Cc1cc(F)c(OCCC[S+]([O-])c2ccc(F)cc2)cc1[S+]([O-])CC(F)(F)F (centres unmarked) [A-0902], the control value was no less than 90.

With Cc1cc(F)c(OCCCSCc2ccccc2)cc1SCC(F)(F)F [A-0913] the control value was no less than 90.

Fc1cc(Cl)c(SCC(F)(F)F)cc1OCCCSCc1ccccc1 [A-0914] was tested, and the control value was no less than 90.

Work on Cc1cc(Cl)c(OCCCSCc2ccccc2)cc1SCC(F)(F)F [A-0915] yielded a control value of no less than 90.

For N#Cc1cc(F)c(OCCCSCc2ccccc2)cc1SCC(F)(F)F [A-0916], the control value was no less than 90.

Compound Cc1ccc(OCCCSCc2ccccc2)cc1SCC(F)(F)F [A-0917] has a control value of no less than 90.

In the case of Cc1cc(F)c(OCCCSCc2ccccc2)cc1[S+]([O-])CC(F)(F)F (centres unmarked) [A-0918], the control value was no less than 90.

Cc1cc(F)c(OCCCSCc2ccc(Cl)cc2)cc1SCC(F)(F)F [A-0921] showed a control value of no less than 90.

With Cc1cc(F)c(OCCCSCc2ccc(C(F)(F)F)cc2)cc1SCC(F)(F)F [A-0923] the control value was no less than 90.

Cc1cc(F)c(OCCCSCc2ccc(C(F)(F)F)cc2)cc1[S+]([O-])CC(F)(F)F (centres unmarked) [A-0924] was tested, and the control value was no less than 90.

Work on Cc1cc(F)c(OCCCSC(C)c2ccccc2)cc1SCC(F)(F)F (centres unmarked) [A-0936] yielded a control value of no less than 90.

For Cc1cc(F)c(OCCC[S+]([O-])Cc2ccccc2)cc1SCC(F)(F)F (centres unmarked) [A-0940], the control value was no less than 90.

Cc1cc(F)c(OCCC[S+]([O-])Cc2ccc(C(F)(F)F)cc2)cc1SCC(F)(F)F (centres unmarked) [A-0941] was tested, and the control value was no less than 90.

Work on Cc1cc(F)c(OCCC[S+]([O-])Cc2ccc(Cl)cc2)cc1[S+]([O-])CC(F)(F)F (centres unmarked) [A-0942] yielded a control value of no less than 90.

Work on Cc1cc(F)c(OCCCS(=O)(=O)Cc2ccccc2)cc1SCC(F)(F)F [A-0948] yielded a control value of no less than 90.

Fc1cc(Cl)c(SCC(F)(F)F)cc1OCCCOc1ccc(C(F)(F)F)cc1 [A-0956] showed a control value of no less than 90.

With [O-][S+](CC(F)(F)F)c1cc(OCCCOc2ccc(C(F)(F)F)cc2)c(F)cc1Cl (centres unmarked) [A-0957] the control value was no less than 90.

In the case of CC(=NOCCCCOc1cc(SCC(F)(F)F)c(C)cc1F)C1CC1 [A-0989], the control value was no less than 90.

Cc1cc(F)c(OCCCCON=Cc2ccc(SC(F)(F)F)cc2)cc1SCC(F)(F)F [A-1011] was tested, and the control value was no less than 90.

Compound Cc1cc(F)c(OCC(=O)c2ccc(C(F)(F)F)cc2)cc1SCC(F)(F)F [A-1081] has a control value of no less than 90.

Cc1cc(F)c(OCCCCNC(=O)C(C)(C)C)cc1SCC(F)(F)F [A-1112] gave a control value of no less than 90.

For Cc1cc(F)c(OCCCCNC(=O)OCC(Cl)(Cl)Cl)cc1SCC(F)(F)F [A-1127], the control value was no less than 90.

O=S(=O)(NCCOc1cc(SCC(F)(F)F)c(Cl)cc1F)C(F)(F)F [A-1138] gave a control value of no less than 90.

For Cc1cc(F)c(OCCCCNS(C)(=O)=O)cc1SCC(F)(F)F [A-1149], the control value was no less than 90.

Compound CS(=O)(=O)NCCCCOc1cc(SCC(F)(F)F)c(Cl)cc1F [A-1151] has a control value of no less than 90.

O=S(=O)(NCCCCOc1cc(SCC(F)(F)F)c(Cl)cc1F)C(F)(F)F [A-1156] showed a control value of no less than 90.

O=S(=O)(NCCCCOc1cc([S+]([O-])CC(F)(F)F)c(Cl)cc1F)C(F)(F)F (centres unmarked) [A-1157] showed a control value of no less than 90.

Work on Cc1cc(F)c(OCCCCCNS(C)(=O)=O)cc1SCC(F)(F)F [A-1164] yielded a control value of no less than 90.

Compound Cc1cc(F)c(OCCCCCNS(C)(=O)=O)cc1[S+]([O-])CC(F)(F)F (centres unmarked) [A-1165] has a control value of no less than 90.

Cc1cc(F)c(OCCCCCNS(=O)(=O)C(F)F)cc1[S+]([O-])CC(F)(F)F (centres unmarked) [A-1166] gave a control value of no less than 90.

In the case of Cc1cc(F)c(OCCCCCNS(=O)(=O)C(F)(F)F)cc1[S+]([O-])CC(F)(F)F (centres unmarked) [A-1167], the control value was no less than 90.

Compound Cc1cc(F)c(OCCCCCNS(=O)(=O)C(F)(F)F)cc1SCC(F)(F)F [A-1175] has a control value of no less than 90.

For CC(=O)N(CCOc1cc([S+]([O-])CC(F)(F)F)c(C)cc1F)S(=O)(=O)C(F)(F)F (centres unmarked) [A-1178], the control value was no less than 90.

COC(=O)N(CCOc1cc([S+]([O-])CC(F)(F)F)c(C)cc1F)S(=O)(=O)C(F)(F)F (centres unmarked) [A-1181] showed a control value of no less than 90.

COC(=O)N(CCOc1cc([S+]([O-])CC(F)(F)F)c(Cl)cc1F)S(=O)(=O)C(F)(F)F (centres unmarked) [A-1183] showed a control value of no less than 90.

Compound Cc1cc(F)c(OCCCCN(C)S(=O)(=O)C(F)(F)F)cc1[S+]([O-])CC(F)(F)F (centres unmarked) [A-1190] has a control value of no less than 90.

With CC(=O)N(CCCCOc1cc([S+]([O-])CC(F)(F)F)c(Cl)cc1F)S(=O)(=O)C(F)(F)F (centres unmarked) [A-1192] the control value was no less than 90.

COC(=O)N(CCCCOc1cc([S+]([O-])CC(F)(F)F)c(C)cc1F)S(=O)(=O)C(F)(F)F (centres unmarked) [A-1196] gave a control value of no less than 90.

Compound CC(=O)N(CCCCCOc1cc([S+]([O-])CC(F)(F)F)c(C)cc1F)S(=O)(=O)C(F)(F)F (centres unmarked) [A-1200] has a control value of no less than 90.

Compound COC(=O)N(CCCCCOc1cc(SCC(F)(F)F)c(C)cc1F)S(=O)(=O)C(F)(F)F [A-1201] has a control value of no less than 90.

Work on Cc1cc(F)c(OCCC[Si](C)(C)C)cc1[S+]([O-])CC(F)(F)F (centres unmarked) [A-1207] yielded a control value of no less than 90.

With Cc1cc(F)c(OCCOc2ccc(C(F)(F)F)cn2)cc1SCC(F)(F)F [B-0070] the control value was no less than 90.

Fc1cc(Cl)c(SCC(F)(F)F)cc1OCCCOc1ccc(C(F)(F)F)cn1 [B-0072] was tested, and the control value was no less than 90.

In the case of [O-][S+](CC(F)(F)F)c1cc(OCCCOc2ccc(C(F)(F)F)cn2)c(F)cc1Cl (centres unmarked) [B-0073], the control value was no less than 90.

Cc1cc(F)c(OCCCOc2ccc(C(F)(F)F)cn2)cc1SCC(F)(F)F [B-0074] showed a control value of no less than 90.

Compound Cc1cc(F)c(OCCCOc2ccc(C(F)(F)F)cn2)cc1[S+]([O-])CC(F)(F)F (centres unmarked) [B-0075] has a control value of no less than 90.

For Cc1cc(F)c(OCCCCOc2ccc(C(F)(F)F)cn2)cc1SCC(F)(F)F [B-0076], the control value was no less than 90.

In the case of Fc1cc(Cl)c(SCC(F)(F)F)cc1OCCCCOc1ccc(C(F)(F)F)cn1 [B-0078], the control value was no less than 90.

[O-][S+](CC(F)(F)F)c1cc(OCCCCOc2ccc(C(F)(F)F)cn2)c(F)cc1Cl (centres unmarked) [B-0079] gave a control value of no less than 90.

Fc1cc(Cl)c(SCC(F)(F)F)cc1OCCCCCOc1ccc(C(F)(F)F)cn1 [B-0080] showed a control value of no less than 90.

Cc1cc(F)c(OCCCCCOc2ccc(C(F)(F)F)cn2)cc1SCC(F)(F)F [B-0082] gave a control value of no less than 90.

Compound Fc1cc(Cl)c(SCC(F)(F)F)cc1OCC(F)(F)C(F)(F)COc1ccc(C(F)(F)F)cn1 [B-0084] has a control value of no less than 90.
